Structures can show the parent of a compound that is named as a salt. This is one part of the list. Repeats in this data set agree poorly, so a single value says little.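 The human kidney-derived cells carry a stably integrated construct of eight TEAD-binding elements driving luciferase, read by luminescence in a drug-repurposing library screen. A compound counts as a hit when its signal is more than five robust Z scores above the plate mean.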
System: HEK293A TEAD-LUC reporter
Assay: TEAD-luciferase reporter activity (YAP activation), robust Z score vs plate; higher = stronger YAP/TEAD activation
Settings: 24 h

Structure (SMILES) | TEAD-luciferase reporter activity (compound concentration: 200 nM) | TEAD-luciferase reporter activity (compound concentration: 2 uM) | TEAD-luciferase reporter activity (compound concentration: 10 uM)
CC[C@H](Nc1ncnc2[nH]cnc12)c1oc2ccccc2c(=O)c1-c1cccc(F)c1 [Tenalisib] | inactive: -1.31 | inactive: -1.07 | inactive: 0.389
O=C(CO)[C@@H]1CCCN1C(=O)[C@@H]1CCCN1C(=O)NCc1ccccc1 | inactive: -1.25 | inactive: 0.231 | inactive: 2.18
CS(=O)(=O)c1ccc([C@@H](O)[C@@H](CF)NC(=O)C(Cl)Cl)cc1 [Florfenicol] | – | inactive: -0.852 | –
CS(=O)(=O)c1ccc([C@@H](O)[C@@H](CF)NC(=O)C(Cl)Cl)cc1 | inactive: 0.304 | – | inactive: -0.923
c1coc(CNc2ncnc3[nH]cnc23)c1 [Kinetin] | inactive: -1.21 | inactive: -0.0606 | inactive: -0.647
CCCCCCCCCC(=O)OCCN1CCN(CC/C=C2\c3ccccc3Sc3ccc(C(F)(F)F)cc32)CC1 | inactive: 0.206 | inactive: -0.633 | inactive: -0.757
OCCOCCOCCN1CCC(=C(c2ccccc2)c2ccccc2)CC1 [Pipoxizine] | inactive: 0.611 | inactive: -0.962 | inactive: -0.96
CC1(C)[C@H]2CC[C@@H](CNC(=O)c3cccnc3)[C@@H]1C2 | inactive: -0.594 | – | inactive: -0.201
O[C@@](Cc1ncc(CC2(C(F)(F)F)CC2)[nH]1)(c1ccc(-n2cccn2)cc1)C(F)(F)F | inactive: -0.407 | inactive: 0.569 | inactive: -1.57
CN(C)Cc1nccn1-c1ccc(NC(=O)c2cc(C(F)(F)F)nn2-c2ccc3onc(N)c3c2)c(F)c1 [Razaxaban hydrochloride] | inactive: -2.78 | – | inactive: 1.24
CC1(C)OC2[C@@H](CO[C@@]3(COS(N)(=O)=O)OC(C)(C)O[C@@H]23)O1 (some centres undefined) [topiramate] | inactive: 1.7 | inactive: -0.511 | inactive: 3.49
CCOC(=O)c1nc(=O)c2cc3cc(OC)c(OC)cc3nc2[nH]1 | inactive: 1.02 | inactive: 4.11 | inactive: 2.78
CCCOc1ccc2c(c1)[C@@H](c1ccc(OC)cc1OCC(=O)O)[C@H](C(=O)O)[C@H]2c1ccc2c(c1)OCO2 | inactive: -1.67 | inactive: -0.246 | inactive: -0.674
CCOC(=O)c1cc(NC(=O)c2cccs2)ccc1OCC(O)CNC(C)(C)C (centres undefined) | inactive: -0.835 | inactive: -1.37 | inactive: -0.434
CSCC(=O)NC[C@H]1CN(c2ccc(N3CCOCC3)c(F)c2)C(=O)O1 | inactive: -1.05 | inactive: -1.54 | inactive: -0.491
O=c1cc(-c2nnn[nH]2)oc2c(/C=C/c3ccc(OCCCCc4ccc(F)cc4)cc3)cccc12 | inactive: -0.947 | inactive: -0.751 | inactive: 2.86
COc1ccc(C(=O)Nc2c(Cl)cncc2Cl)cc1OC1CCCC1 [Piclamilast] | inactive: -1.45 | inactive: -1.69 | inactive: 1.78
CCCCC(C(=O)O)C(=O)N(Nc1ccccc1)c1ccccc1 (centres undefined) | inactive: -1.74 | inactive: -1.7 | inactive: 0.824
CCN(CC)CCNC(=O)c1ccc(N)c(Cl)c1 [Declopramide] | inactive: -1.25 | inactive: -0.378 | inactive: 1.23
COC(=O)C1=C(C)NC(C)=C(C(=O)OCCN2CCN(C(c3ccccc3)c3ccccc3)CC2)C1c1ccccc1 (centres undefined) [analog of manidipine] | inactive: 1.11 | inactive: -1.32 | inactive: 0.207
CCOC(=O)C1=C(C)NC(C)=C(C(=O)OCC)C1c1cccc2nonc12 | inactive: -0.35 | inactive: 0.652 | inactive: -0.61
CC(C)=CCN1Cc2cc(Cl)cc3[nH]c(=S)n(c23)C[C@@H]1C | inactive: -0.62 | inactive: -1.69 | inactive: -1.2
COc1ccc(C(=O)/C(Cc2cc(OC)c(OC)c(OC)c2)=C(\C(=O)O)c2ccc3c(c2)OCO3)cc1 | inactive: -1.8 | active: 9.18 | active: 13.1
CC(C)(C)c1cc(/C=C2\CCOC2=O)cc(C(C)(C)C)c1O | inactive: -2.22 | inactive: -0.72 | inactive: -0.307
O=C1N=C(NCc2cccs2)S/C1=C\c1ccc2ncccc2c1 [Cdk1 Inhibitor IV, RO-3306] | inactive: -0.571 | – | inactive: 1.88
O=c1c2ccccc2c(Cc2ccc(F)cc2)nn1C1CCCN(CCc2ccccc2)CC1 (centres undefined) | inactive: -2.6 | inactive: -0.341 | inactive: 4.6
[Ba+2] | inactive: -0.411 | – | inactive: -0.741
COc1cc(NC(=O)CCN2CCC(OC(=O)Nc3ccccc3-c3ccccc3)CC2)c(Cl)cc1CNC[C@H](O)c1ccc(O)c2[nH]c(=O)ccc12 [Batefenterol] | inactive: -1.45 | inactive: 2.09 | inactive: 0.112

Structure (SMILES) | TEAD-luciferase reporter activity (compound concentration: 200 nM) | TEAD-luciferase reporter activity (compound concentration: 2 uM) | TEAD-luciferase reporter activity (compound concentration: 10 uM)
Cc1ccc(C(=O)Oc2ccc(C(CN(C)C)C3(O)CCCCC3)cc2)cc1 (centres undefined) | inactive: 0.166 | inactive: -1.05 | inactive: -0.784
CC(C)OC(=O)CCC/C=C\C[C@H]1C(=O)C=C[C@@H]1/C=C/[C@@H](O)CCc1ccccc1 [Posaraprost] | inactive: -1.59 | inactive: 1.48 | inactive: 1.84
CC/C(=C(\c1ccc(O)cc1)c1ccc(OCCN(C)C)cc1)c1ccccc1 [Afimoxifene] | inactive: -0.595 | inactive: -0.585 | inactive: 0.825
CC1(C)C=C(c2cccc[n+]2[O-])c2cc(C#N)ccc2O1 | inactive: 0.371 | inactive: -1.93 | inactive: 0.28
O=C(NCc1ccccc1)OCCO | inactive: -1.3 | inactive: -0.508 | inactive: 2.21
COc1cccc(C(=O)N2C3CCCC2CC(=O)C3)c1 | inactive: -1.71 | – | inactive: -0.71
COc1cc2c(cc1OC)-c1cc(NCC(C)C)nc(=O)n1CC2 | inactive: 1.98 | inactive: -1.2 | inactive: 0.806
C=CC(=O)N1CCC[C@@H](n2nc(-c3ccc(Oc4ccccc4)cc3)c3c(N)ncnc32)C1 [ibrutinib] | inactive: -0.996 | inactive: -0.137 | inactive: -0.328
CC(C)(OCc1nn(Cc2ccccc2)c2ccccc12)C(=O)O [Bindarit] | inactive: 1.28 | inactive: 0.722 | inactive: -1.91
O=C1NCc2ccccc2CC12CCCN2Cc1ccc(O)cc1 (centres undefined) | inactive: 1.13 | – | inactive: -0.0388
C=CCOc1ccc(CC(=O)O)cc1Cl [alclofenac] | inactive: 0.383 | inactive: -1.83 | inactive: 0.919
OC[C@H]1O[C@@H](n2cnc3c(NCc4ccccc4)ncnc32)[C@H](O)[C@@H]1O | inactive: -0.642 | inactive: 1.8 | inactive: -0.334
CC[C@](NC(=O)[C@@H]1CCCN1)(C(=O)NCC(N)=O)c1ccccc1 | inactive: 0.471 | inactive: 0.343 | inactive: 0.417
CC(C)[C@@H]1CC[C@@H](C)C[C@H]1C(=O)NC[C@@H](OCCN)c1ccccc1 [analog of D-3263] | – | inactive: 0.178 | –
CC(C)[C@@H]1CC[C@@H](C)C[C@H]1C(=O)NC[C@@H](OCCN)c1ccccc1 | inactive: -1.82 | – | inactive: 2.3
CC1(C)C(=O)Nc2cc3[nH]c(-c4ccncc4)nc3cc21 | inactive: 0.366 | inactive: -0.147 | inactive: 0.0753
CNCCOC(=O)c1cc(OC)c2c(c1-c1c(C(=O)O)cc(OC)c3c1OCO3)OCO2 | inactive: 3.78 | inactive: -0.485 | inactive: -0.925
Cc1ccc(CC(=O)N(C)[C@H](Cc2ccc3ccccc3c2)C(=O)N[C@@H]2CCCC[C@@H]2NC(=O)c2c[nH]c3ccccc23)cc1 | inactive: -1.39 | inactive: -1.19 | inactive: -0.813
CC(C(=O)O)c1ccc(-c2ccccc2)c(F)c1 (centres undefined) [flurbiprofen SR] | – | inactive: -0.149 | –
CC(C(=O)O)c1ccc(-c2ccccc2)c(F)c1 (centres undefined) [Flurbiprofen5104-49-4] | inactive: -0.24 | – | inactive: 0.833
CNS(=O)(=O)CCc1ccc2[nH]cc(C3CCN(C)CC3)c2c1 [naratriptan] | inactive: -1.08 | inactive: -0.197 | inactive: -1.21
CC(C)(C)c1ccc(C(O)CCCN2CCC(C(O)(c3ccccc3)c3ccccc3)CC2)cc1 (centres undefined) [terfenadine] | inactive: -1.24 | inactive: -0.618 | inactive: 0.463
CCCS(=O)(=O)Nc1ccc(F)c(C(=O)c2c[nH]c3ncc(-c4ccc(Cl)cc4)cc23)c1F [Vemurafenib] | inactive: -0.121 | inactive: -1.66 | –
COc1c(OCc2ccc(-c3ccccc3-c3nnn[nH]3)cc2)cc(C)nc1C | inactive: -1.49 | inactive: -0.541 | inactive: -0.176
NS(=O)(=O)c1cc(C(=O)O)cc(N2CCCC2)c1Oc1ccccc1 [piretanide] | inactive: 0.596 | inactive: -0.888 | inactive: -1.69
CCc1cccc(C)c1-n1c(=O)c2ccccc2n(C)c1=O | inactive: 0.399 | inactive: -1.86 | inactive: 0.553
CC(C)=CCC/C(C)=C/CC/C(C)=C/C(=O)OCC(=O)[C@@]1(O)CC[C@H]2[C@@H]3CCC4=CC(=O)C=C[C@]4(C)[C@H]3[C@@H](O)C[C@@]21C | inactive: -0.846 | inactive: 0.485 | inactive: 0.903

Shown as comma-separated lines: part of the list above.
Structure (SMILES),TEAD-luciferase reporter activity (compound concentration: 200 nM),TEAD-luciferase reporter activity (compound concentration: 2 uM),TEAD-luciferase reporter activity (compound concentration: 10 uM)
NS(=O)(=O)c1cc(C(=O)O)cc(N2CCCC2)c1Oc1ccccc1 [piretanide],inactive: 0.596,inactive: -0.888,inactive: -1.69
CCc1cccc(C)c1-n1c(=O)c2ccccc2n(C)c1=O,inactive: 0.399,inactive: -1.86,inactive: 0.553
CC(C)=CCC/C(C)=C/CC/C(C)=C/C(=O)OCC(=O)[C@@]1(O)CC[C@H]2[C@@H]3CCC4=CC(=O)C=C[C@]4(C)[C@H]3[C@@H](O)C[C@@]21C,inactive: -0.846,inactive: 0.485,inactive: 0.903
